In paper PMC7819943, “Rice protein-binding microarrays: a tool to detect cis-acting elements near promoter regions in rice” one finds binding signal data, which are given here for 42 sequences.

The other results are listed elsewhere or left out.

The experiment concerns the target T1, OsSMF1 (Oryza sativa, UniProt Q6ZLB0 1-436).
T1 sequence: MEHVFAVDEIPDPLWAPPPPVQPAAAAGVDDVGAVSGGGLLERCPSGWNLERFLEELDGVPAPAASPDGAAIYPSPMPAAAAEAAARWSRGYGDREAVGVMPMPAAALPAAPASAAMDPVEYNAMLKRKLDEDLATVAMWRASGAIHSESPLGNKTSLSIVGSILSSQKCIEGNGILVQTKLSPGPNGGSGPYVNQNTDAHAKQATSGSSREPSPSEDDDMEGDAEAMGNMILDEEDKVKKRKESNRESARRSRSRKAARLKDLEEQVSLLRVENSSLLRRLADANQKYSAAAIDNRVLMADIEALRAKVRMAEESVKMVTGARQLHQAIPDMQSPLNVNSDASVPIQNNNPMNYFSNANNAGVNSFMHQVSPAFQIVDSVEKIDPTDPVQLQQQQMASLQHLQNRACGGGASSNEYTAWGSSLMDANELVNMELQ
The experiment in a line: protein-binding microarray (RPBM); PBS, 2% BSA, 51.3 ng/ul salmon testes DNA, 50 uM zinc acetate, 200 nM TF, 25 C, 1 h; high values mean tight binding. To be noted: protein: recombinant; tags: N-terminal polyhistidine and DsRed monomer fusion (pET32a); chain copies: 2; label: CyDye5-dUTP incorporated in the synthesized complementary strand; 3' TTTTT single-stranded linker to array surface; dsDNA, one strand shown. A digest of the protocol: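 An Axon 4000B scanner gave the binding signal as per-feature fluorescence intensity in arbitrary units. This followed washing of a custom Agilent array that had been incubated for 1 h at 25 °C with 200 nM protein in PBS, 2% BSA, salmon testes DNA and 50 µM zinc acetate. The proteins were transcription factors fused at the N-terminus to polyhistidine and DsRed, expressed in E. coli BL21-CodonPlus and purified on Ni–NTA.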
As to “AGGTCAAGCCACATGTGATCCCCAATATTCCTACTTCCAGCGGAGTCACCTAGTGCAG”, the binding signal is 3440 fluorescence intensity (a.u.). The result for “ATTCCACGGTTCGTTTCCACCGCGCGCGCCACGGCGAGCTCGGAGTCACCTAGTGCAG” reads 3490 fluorescence intensity (a.u.); that for “TGAACCCCACATGTCAGCTTTACTACTCCCTTCTTCCCTACGGAGTCACCTAGTGCAG”, 4350 fluorescence intensity (a.u.); that for “CTCAAGTTAAAATGATGCGTTGGCACGTAAAAGAACATATCGGAGTCACCTAGTGCAG”, 4430 fluorescence intensity (a.u.).

Regarding “CAGCGACAGCGACCACGCCGGTGACATCGACACCAGCAAGCGGAGTCACCTAGTGCAG”, the binding signal was 5310 fluorescence intensity (a.u.). The result for “GCCAGAGGGACGTGGGTACACGTAGAACCCACGTAGGAGCCGGAGTCACCTAGTGCAG” reads 8730 fluorescence intensity (a.u.); that for “ATCTGCAGACTGCAGTGCAGGCAAAGCTAGGCAACCACGTCGGAGTCACCTAGTGCAG”, 3530 fluorescence intensity (a.u.); that for “TATGCCCACGTTGGACGGAGCGGAGTTTGATTGCCCTATACGGAGTCACCTAGTGCAG”, 3800 fluorescence intensity (a.u.). On to “TTTCTTTTCTTCTTTCCTTCTCCCCACGGAGGTGTACGTACGGAGTCACCTAGTGCAG”, for which the binding signal was 3440 fluorescence intensity (a.u.). The result for “ACAATCTTCTCCAGTTATCCCCTCTCCGGATGCTGATCTGCGGAGTCACCTAGTGCAG” reads 3940 fluorescence intensity (a.u.); that for “TGACAGGTAGAGGTCCATCAATTGGTCATTATGCTATTCTCGGAGTCACCTAGTGCAG”, 7800 fluorescence intensity (a.u.).

Turning to “CCTACAATTAAGGACGAAATGACACGTGGAAATAGACGTGCGGAGTCACCTAGTGCAG”, the binding signal was 14700 fluorescence intensity (a.u.). With “AAGCACGTGTGCACGGTACACGTGTCCCAGATGGAGTAGTCGGAGTCACCTAGTGCAG” the figure was 5500 fluorescence intensity (a.u.); with “TCCGTCAAATTCAGTCGGCAGGGTCACTGAGATATCGTCGCGGAGTCACCTAGTGCAG”, 3460 fluorescence intensity (a.u.).

Take “GTCATTAGGAAAACGCAATAAGCTGAGTCAGATTAGCAAGCGGAGTCACCTAGTGCAG”: the binding signal was 7970 fluorescence intensity (a.u.). On to “GCACCTGGGACCGCGTGCGTGCGGGCGGGCGGGCGGGCGGCGGAGTCACCTAGTGCAG”, for which the binding signal was 6870 fluorescence intensity (a.u.).

“AGGTAGGGTCGTGGGGAAGGAGAAAGACCTGACATGTGGGCGGAGTCACCTAGTGCAG”: the binding signal is 16400 fluorescence intensity (a.u.). The result for “ACTACTAGTACTCGCAAATCACAATCCTTCACAAAACCGACGGAGTCACCTAGTGCAG” reads 3310 fluorescence intensity (a.u.). Take “GCCCTTAATCAATTTGTATCAGAACAGCAATAGATGTCTACGGAGTCACCTAGTGCAG”: the binding signal is 26800 fluorescence intensity (a.u.). The result for “CCCTGGGTGGTTTTGGAGGTGGTTTTGGTTGACGTGGCGCCGGAGTCACCTAGTGCAG” reads 21400 fluorescence intensity (a.u.); that for “ATATGGCAAGGTTGGATCAGTCATTTCGGCATGGCCATTTCGGAGTCACCTAGTGCAG”, 3210 fluorescence intensity (a.u.). The result for “CGGACCAAACACATCGAGCTCGACATCCACTTCGTCAGGGCGGAGTCACCTAGTGCAG” reads 3570 fluorescence intensity (a.u.); that for “TGTTTTGACGGGCCCGGAATTGCTTTTGCTGCCTAGGCACCGGAGTCACCTAGTGCAG”, 3150 fluorescence intensity (a.u.); that for “CCAGAGCCAGAGTGAGCCACCACCAGAGGCGTGACCGAATCGGAGTCACCTAGTGCAG”, 4470 fluorescence intensity (a.u.).

In the case of “AAACAGCGCGTGAACGTGGCACGCCTGAACCGCACGGAACCGGAGTCACCTAGTGCAG”, the binding signal is 4910 fluorescence intensity (a.u.). “CGCCGCCCTCGGAGAGTCGACGCCCGCGGCTGGCTCAGCGCGGAGTCACCTAGTGCAG”: the binding signal was 3410 fluorescence intensity (a.u.). Consider “TTAGAAATGTCCTAGTCGATGATGTGTGTACATTCGTACACGGAGTCACCTAGTGCAG”, for which the binding signal was 5300 fluorescence intensity (a.u.). With “GCCGCTGCCGTCGGGAGCTCAAGTTTGACTCGTGAGCTGGCGGAGTCACCTAGTGCAG” the figure was 3450 fluorescence intensity (a.u.); with “GACACATCCCCTCTAGGATCCTACGTGGCACTGATGTGGCCGGAGTCACCTAGTGCAG”, 34000 fluorescence intensity (a.u.). With “CTCCTACTCATCATCATCGTCTTCTTCTTCTTGCCCAACTCGGAGTCACCTAGTGCAG” the figure was 4050 fluorescence intensity (a.u.); with “AATCCTGCTAGAATGACTCCTCTCGTATGATGTATACCTACGGAGTCACCTAGTGCAG”, 4240 fluorescence intensity (a.u.); with “ACGAGATCCACTCGCACCAGCTCATCATTTGCTCCTCCACCGGAGTCACCTAGTGCAG”, 3720 fluorescence intensity (a.u.). The result for “AACTCTGATACGATGTGATATGCTGGATCGGGGAGGGGCGCGGAGTCACCTAGTGCAG” reads 4350 fluorescence intensity (a.u.); that for “TTATCGTTTGCAGCTTTATCATTTCAGTTCTGTTTTCAAGCGGAGTCACCTAGTGCAG”, 27800 fluorescence intensity (a.u.); that for “GCTTGTTGCTAGCTAGTACGTGTACGCCAAGGCCAAGACGCGGAGTCACCTAGTGCAG”, 3360 fluorescence intensity (a.u.). Turning to “TTTCTCTCACCTCTACGTCACTGCTACAGTTGATATGAAACGGAGTCACCTAGTGCAG”, the binding signal was 3620 fluorescence intensity (a.u.).

As for “CAGTGAGAAATAGTATTGAGCGTCAGCACAACAGAATGCACGGAGTCACCTAGTGCAG”, the binding signal was 4170 fluorescence intensity (a.u.). With “ATGCGTGATGACTGATGAGTGACAACAACTAGTTGCCCTCCGGAGTCACCTAGTGCAG” the figure was 5860 fluorescence intensity (a.u.); with “AACTTCTTTGTACCTACAAGTCACACCACACATGTTTGAACGGAGTCACCTAGTGCAG”, 3430 fluorescence intensity (a.u.); with “GAAATGCTCGATCAGAACAAGTATTAGTCAGCAGATACAACGGAGTCACCTAGTGCAG”, 5400 fluorescence intensity (a.u.). The result for “AAGAGGACAGTTGGGCCCACATGTCAGCGGCATCCACGACCGGAGTCACCTAGTGCAG” reads 3570 fluorescence intensity (a.u.); that for “GTGGGCGAAGTTGGTCGGCGTGGCAGCGCGCGACCGCGTCCGGAGTCACCTAGTGCAG”, 3980 fluorescence intensity (a.u.).
